Laboratory results: the supplement of paper PMC10849652
Some of the results follow.

The chains behind the UniProt entries cited, without tags or fusion partners. Where a name states a change or a piece, a line headed by the entry shows the natural chain unless it says otherwise.
UniProt O75056, whole entry, looked up: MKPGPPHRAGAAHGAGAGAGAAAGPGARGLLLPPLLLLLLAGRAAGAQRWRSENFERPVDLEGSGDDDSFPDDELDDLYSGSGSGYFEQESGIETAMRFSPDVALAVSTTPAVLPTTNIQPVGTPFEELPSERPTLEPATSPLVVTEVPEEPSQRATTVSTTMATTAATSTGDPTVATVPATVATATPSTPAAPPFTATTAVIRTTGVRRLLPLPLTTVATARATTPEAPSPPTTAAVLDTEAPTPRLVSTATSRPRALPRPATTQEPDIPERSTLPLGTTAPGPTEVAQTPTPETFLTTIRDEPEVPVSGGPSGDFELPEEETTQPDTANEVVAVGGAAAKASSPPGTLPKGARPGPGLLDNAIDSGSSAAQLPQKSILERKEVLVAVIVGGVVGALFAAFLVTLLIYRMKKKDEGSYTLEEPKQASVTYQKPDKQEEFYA
UniProt Q9NTN9: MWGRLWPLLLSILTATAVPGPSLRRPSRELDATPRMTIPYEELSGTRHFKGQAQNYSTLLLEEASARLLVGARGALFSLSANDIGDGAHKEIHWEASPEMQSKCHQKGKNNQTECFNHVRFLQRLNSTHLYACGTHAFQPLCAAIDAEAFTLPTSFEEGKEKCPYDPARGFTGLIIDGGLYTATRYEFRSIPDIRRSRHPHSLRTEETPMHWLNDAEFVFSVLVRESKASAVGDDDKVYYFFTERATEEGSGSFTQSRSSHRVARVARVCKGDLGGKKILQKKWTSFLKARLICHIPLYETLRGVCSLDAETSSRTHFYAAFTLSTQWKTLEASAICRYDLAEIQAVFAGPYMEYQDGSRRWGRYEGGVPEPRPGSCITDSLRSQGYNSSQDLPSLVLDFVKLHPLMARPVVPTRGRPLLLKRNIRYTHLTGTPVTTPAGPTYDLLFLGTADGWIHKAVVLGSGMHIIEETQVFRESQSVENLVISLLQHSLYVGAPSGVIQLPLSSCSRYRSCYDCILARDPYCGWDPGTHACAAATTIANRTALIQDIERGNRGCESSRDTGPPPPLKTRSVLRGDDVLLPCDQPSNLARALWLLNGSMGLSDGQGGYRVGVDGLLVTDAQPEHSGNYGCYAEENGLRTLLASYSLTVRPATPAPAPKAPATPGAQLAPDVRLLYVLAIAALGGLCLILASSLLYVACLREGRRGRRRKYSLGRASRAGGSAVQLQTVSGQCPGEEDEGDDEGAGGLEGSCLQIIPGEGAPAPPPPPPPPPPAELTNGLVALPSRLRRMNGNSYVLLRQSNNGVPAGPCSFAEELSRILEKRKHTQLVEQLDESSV
UniProt Q9UPW6: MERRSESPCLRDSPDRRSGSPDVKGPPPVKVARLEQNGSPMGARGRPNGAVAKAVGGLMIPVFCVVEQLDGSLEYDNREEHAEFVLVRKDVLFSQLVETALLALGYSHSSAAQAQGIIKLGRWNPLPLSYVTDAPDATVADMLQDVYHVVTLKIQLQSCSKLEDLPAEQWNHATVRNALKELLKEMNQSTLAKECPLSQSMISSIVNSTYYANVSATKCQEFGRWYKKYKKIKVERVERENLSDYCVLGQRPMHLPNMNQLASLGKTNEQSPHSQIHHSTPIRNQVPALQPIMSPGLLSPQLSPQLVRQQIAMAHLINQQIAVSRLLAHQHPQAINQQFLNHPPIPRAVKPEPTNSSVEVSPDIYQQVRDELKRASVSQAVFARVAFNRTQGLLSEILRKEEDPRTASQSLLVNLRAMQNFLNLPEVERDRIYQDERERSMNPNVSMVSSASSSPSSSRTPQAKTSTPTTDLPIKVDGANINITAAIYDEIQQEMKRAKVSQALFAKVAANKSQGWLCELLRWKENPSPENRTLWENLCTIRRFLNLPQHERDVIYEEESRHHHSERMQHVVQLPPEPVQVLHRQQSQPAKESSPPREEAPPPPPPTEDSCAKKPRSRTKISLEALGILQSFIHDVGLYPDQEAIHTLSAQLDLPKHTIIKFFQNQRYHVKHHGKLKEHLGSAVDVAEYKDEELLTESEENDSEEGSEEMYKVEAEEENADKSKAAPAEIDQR
UniProt Q9C0D9, whole entry, looked up: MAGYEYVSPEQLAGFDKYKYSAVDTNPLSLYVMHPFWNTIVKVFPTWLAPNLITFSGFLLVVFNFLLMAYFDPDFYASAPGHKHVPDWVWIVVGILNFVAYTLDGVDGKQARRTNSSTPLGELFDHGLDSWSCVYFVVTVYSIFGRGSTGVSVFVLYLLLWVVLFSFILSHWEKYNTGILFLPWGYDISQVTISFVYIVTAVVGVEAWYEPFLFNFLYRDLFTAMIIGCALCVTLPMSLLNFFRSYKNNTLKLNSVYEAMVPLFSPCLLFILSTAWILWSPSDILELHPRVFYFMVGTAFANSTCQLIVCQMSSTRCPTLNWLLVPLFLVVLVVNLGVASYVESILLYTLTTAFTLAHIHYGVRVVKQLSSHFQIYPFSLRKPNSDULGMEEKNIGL
UniProt Q9UIL1: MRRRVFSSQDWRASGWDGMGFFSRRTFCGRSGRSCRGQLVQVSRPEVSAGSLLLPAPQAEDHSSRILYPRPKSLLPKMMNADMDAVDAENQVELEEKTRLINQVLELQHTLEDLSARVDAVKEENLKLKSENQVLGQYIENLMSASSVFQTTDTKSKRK
UniProt Q12770: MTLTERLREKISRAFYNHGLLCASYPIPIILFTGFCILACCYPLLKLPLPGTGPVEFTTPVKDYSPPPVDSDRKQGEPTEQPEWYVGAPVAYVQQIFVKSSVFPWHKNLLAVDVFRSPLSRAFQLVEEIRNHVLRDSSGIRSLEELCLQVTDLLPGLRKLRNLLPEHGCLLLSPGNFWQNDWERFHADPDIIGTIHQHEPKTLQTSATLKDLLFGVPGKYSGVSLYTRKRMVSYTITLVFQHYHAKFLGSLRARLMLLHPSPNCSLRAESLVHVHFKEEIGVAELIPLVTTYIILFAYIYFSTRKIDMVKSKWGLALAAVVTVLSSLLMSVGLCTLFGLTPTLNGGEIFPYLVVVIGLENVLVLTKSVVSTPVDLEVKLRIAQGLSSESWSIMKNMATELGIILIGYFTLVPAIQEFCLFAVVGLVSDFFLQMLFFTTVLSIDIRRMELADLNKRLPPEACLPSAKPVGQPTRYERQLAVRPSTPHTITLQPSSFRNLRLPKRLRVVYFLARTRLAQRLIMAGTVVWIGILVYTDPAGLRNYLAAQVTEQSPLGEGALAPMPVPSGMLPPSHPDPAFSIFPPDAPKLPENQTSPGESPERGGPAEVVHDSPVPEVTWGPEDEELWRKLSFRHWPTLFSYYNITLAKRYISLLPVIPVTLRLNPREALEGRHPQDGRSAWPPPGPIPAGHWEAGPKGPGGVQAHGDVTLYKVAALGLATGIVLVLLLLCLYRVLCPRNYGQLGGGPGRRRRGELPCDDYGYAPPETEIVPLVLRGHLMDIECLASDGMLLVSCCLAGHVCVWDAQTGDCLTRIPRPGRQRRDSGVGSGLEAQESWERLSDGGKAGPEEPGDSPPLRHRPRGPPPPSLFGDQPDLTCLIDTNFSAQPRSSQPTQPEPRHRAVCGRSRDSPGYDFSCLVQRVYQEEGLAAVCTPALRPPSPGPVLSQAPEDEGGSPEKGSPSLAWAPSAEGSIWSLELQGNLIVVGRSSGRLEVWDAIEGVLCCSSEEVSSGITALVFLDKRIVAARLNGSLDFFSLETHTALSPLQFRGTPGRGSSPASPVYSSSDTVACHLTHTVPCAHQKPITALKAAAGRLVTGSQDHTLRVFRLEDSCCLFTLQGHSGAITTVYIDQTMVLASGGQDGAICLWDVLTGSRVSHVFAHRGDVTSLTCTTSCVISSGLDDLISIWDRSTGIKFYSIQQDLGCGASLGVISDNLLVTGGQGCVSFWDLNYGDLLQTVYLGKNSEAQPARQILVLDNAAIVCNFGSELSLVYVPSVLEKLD
UniProt O14521: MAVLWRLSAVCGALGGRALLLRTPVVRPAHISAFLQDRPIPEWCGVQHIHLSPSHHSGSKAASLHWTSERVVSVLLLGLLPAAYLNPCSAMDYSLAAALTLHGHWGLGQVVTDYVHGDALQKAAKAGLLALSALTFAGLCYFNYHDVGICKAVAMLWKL
UniProt Q9BY50: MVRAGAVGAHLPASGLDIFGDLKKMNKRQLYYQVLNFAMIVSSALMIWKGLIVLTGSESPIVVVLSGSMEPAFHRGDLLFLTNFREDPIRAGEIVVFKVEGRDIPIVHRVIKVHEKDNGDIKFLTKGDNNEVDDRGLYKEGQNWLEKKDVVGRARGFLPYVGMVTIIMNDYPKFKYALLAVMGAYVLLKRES
UniProt Q9HAJ7: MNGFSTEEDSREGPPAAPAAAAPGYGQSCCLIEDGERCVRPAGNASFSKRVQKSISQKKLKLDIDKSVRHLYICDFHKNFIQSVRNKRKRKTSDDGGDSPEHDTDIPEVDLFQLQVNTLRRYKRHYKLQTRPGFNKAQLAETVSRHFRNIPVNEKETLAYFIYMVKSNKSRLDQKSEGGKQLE
UniProt Q9BWG6: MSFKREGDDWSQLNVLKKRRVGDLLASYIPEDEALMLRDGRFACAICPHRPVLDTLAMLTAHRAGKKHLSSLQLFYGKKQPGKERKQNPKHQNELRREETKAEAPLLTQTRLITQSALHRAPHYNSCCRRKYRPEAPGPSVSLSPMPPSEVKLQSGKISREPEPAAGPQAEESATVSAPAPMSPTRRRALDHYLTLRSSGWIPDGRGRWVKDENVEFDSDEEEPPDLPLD
UniProt Q68CR1: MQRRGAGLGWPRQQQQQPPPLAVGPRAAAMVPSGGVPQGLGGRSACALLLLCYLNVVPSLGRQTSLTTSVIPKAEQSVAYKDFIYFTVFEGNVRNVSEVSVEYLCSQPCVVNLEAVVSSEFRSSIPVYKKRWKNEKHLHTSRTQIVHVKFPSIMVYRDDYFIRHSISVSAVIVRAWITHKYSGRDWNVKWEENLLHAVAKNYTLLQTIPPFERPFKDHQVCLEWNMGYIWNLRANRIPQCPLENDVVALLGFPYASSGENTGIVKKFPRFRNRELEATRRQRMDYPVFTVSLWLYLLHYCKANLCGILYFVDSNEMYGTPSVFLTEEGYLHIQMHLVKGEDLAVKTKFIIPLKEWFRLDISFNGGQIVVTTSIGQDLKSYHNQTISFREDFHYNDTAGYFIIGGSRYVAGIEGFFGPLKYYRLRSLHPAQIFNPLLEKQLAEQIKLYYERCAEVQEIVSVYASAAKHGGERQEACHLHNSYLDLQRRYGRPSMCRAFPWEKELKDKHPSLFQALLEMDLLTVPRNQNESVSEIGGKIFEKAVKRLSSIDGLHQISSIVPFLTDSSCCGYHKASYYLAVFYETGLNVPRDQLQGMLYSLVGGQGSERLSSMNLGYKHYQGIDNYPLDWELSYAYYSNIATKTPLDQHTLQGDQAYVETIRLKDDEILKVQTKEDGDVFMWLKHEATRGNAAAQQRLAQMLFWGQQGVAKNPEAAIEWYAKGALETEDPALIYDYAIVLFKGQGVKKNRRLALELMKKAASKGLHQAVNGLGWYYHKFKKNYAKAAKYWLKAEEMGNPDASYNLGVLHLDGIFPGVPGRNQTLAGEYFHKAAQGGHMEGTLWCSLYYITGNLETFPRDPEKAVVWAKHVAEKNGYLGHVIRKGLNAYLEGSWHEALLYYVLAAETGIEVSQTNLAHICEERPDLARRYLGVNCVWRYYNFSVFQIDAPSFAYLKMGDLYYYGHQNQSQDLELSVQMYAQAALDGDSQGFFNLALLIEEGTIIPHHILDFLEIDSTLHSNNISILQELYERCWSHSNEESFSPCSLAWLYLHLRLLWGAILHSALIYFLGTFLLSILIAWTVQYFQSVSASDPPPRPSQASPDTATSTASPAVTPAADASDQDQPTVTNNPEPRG
UniProt Q9H4B6: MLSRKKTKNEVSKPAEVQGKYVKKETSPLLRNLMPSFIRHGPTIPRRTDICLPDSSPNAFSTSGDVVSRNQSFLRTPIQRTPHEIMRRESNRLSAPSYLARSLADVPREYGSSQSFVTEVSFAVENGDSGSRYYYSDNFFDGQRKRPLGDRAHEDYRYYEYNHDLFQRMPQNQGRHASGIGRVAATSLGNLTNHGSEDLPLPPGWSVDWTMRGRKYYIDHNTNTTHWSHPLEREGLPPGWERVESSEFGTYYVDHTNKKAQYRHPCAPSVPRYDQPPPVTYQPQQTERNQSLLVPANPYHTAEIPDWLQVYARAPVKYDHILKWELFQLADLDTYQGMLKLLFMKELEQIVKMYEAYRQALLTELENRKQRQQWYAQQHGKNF
UniProt A6NKF1: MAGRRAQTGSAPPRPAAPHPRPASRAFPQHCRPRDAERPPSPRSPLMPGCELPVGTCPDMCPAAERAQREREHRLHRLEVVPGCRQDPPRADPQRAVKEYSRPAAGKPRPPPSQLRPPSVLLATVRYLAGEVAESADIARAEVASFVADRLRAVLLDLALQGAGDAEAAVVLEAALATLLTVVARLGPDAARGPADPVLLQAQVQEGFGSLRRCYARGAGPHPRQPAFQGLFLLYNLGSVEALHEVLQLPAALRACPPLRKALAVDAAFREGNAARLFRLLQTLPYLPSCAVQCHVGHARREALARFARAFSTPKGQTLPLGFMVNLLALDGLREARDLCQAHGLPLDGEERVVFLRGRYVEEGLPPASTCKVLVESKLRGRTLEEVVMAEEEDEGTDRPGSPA

Experiments:
Test in all cases: log2 fold change, soluble protein after heating vs DMSO (PISA); higher = thermal stabilisation; K562 lysate, 10 uM; active = over 0.2 and 3.5 SD of the protein, either way, in both replicates (recomputed)
erlotinib = compound: C#Cc1cccc(Nc2ncnc3cc(OCCOC)c(OCCOC)cc23)c1 [erlotinib]
Procedure, shortened: (§1)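 Pellets of K562 cells were dounce-homogenised in PBS pH 7.4 with 1 mM MgCl2, and the crude extract was held at 1 mg/mL protein for a 30 min treatment with 10 μM compound. Aliquots were heated for 3 min over 48°C-58°C and pooled before NP-40 was added to 0.5% at 4°C. The supernatant from 21,000xg for 90 min was quantified by TMTpro 16plex LC-MS/MS with channel sums equalised. Values are reported from duplicates as log-two fold change in thermal stability relative to solvent controls.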

[1] = compound: C1=CC(=CC=C1C2=NC3=C(N2)C=C(C=C3)C(=O)N)OC4=CC=C(C=C4)Cl
Procedure, shortened: as §1

[2] = compound: C1=CC=C(C=C1)C2=NC(=C(N2)C3=CC=NC=C3)C4=CC(=C(C=C4)Cl)O
Procedure, shortened: as §1

IRAK-1-4 Inhibitor I = compound: C1COCCN1CCN2C3=CC=CC=C3N=C2NC(=O)C4=CC(=CC=C4)[N+](=O)[O-] [IRAK-1-4 Inhibitor I]
Procedure, shortened: as §1

ralimetinib = compound: CC(C)(C)Cn1c(N)nc2ccc(-c3[nH]c(C(C)(C)C)nc3-c3ccc(F)cc3)nc21 [ralimetinib]
Procedure, shortened: as §1

[3] = compound: CC(C)(O)CC(=O)NCCn1ccc2ncnc(Nc3ccc(Oc4cccc(C(F)(F)F)c4)c(Cl)c3)c21
Procedure, shortened: as §1

[4] = compound: CC(C)C1=C2N=C(C=C(N2N=C1)NCC3=CC=CC=C3)NCCCCCCN
Procedure, shortened: as §1

[5] = compound: CC1=C(C2=C(C=C1)C(=O)C3=CC=CC=C3N2CCCN)C
Procedure, shortened: as §1

[6] = compound: CC1=C(C=C(C=C1)NC(=O)C2=CC(=CC=C2)C(C)(C)C#N)NC3=CC4=C(C=C3)N=CN(C4=O)C
Procedure, shortened: as §1

[7] = compound: CC1=C(C=C(C=C1)NC(=O)C2=CC(=CC=C2)N(C)C)NC(=O)C3=CC=C(C=C3)O
Procedure, shortened: as §1

[8] = compound: C/C(=N\NC(=O)C1=CC(=CC=C1)S(=O)(=O)N2CCOCC2)/C3=C(C=CC(=C3)Cl)O
Procedure, shortened: as §1

[9] = compound: C1=CC2=C(C=CC(=C2)/C=C\3/C(=O)NC(=NCC4=CC=CS4)S3)N=C1
Procedure, shortened: as §1

[10] = compound: C1=CC=C2C(=C1)C3=NNC4=CC=CC(=C43)C2=O
Procedure, shortened: as §1

[11] = compound: C1CCN(C1)C(=O)NC2=CC=CC(=C2)NC3=NC=C(C(=N3)NCCC4=CN=CN4)Br
Procedure, shortened: as §1

[12] = compound: C1CN(CCC1(CC2=CC=C(C=C2)Cl)N)C3=NC=NC4=C3C=CN4
Procedure, shortened: as §1

[13] = compound: CC(=O)c1cnc2ccc(-c3cc(Cl)c(O)c(Cl)c3)nc2c1N[C@H]1CC[C@H](CN(C)C)CC1
Procedure, shortened: as §1

[14] = compound: CC1=C(C(CC(=O)N1)C2=CC=C(C=C2)C(F)(F)F)C(=O)NC3=C(C=C4C(=C3)C=NN4)F
Procedure, shortened: as §1

[15] = compound: CC1=CC=C(C=C1)SC2=C3C=C(SC3=CN=C2)C(=O)N
Procedure, shortened: as §1

[16] = compound: C1=CC2=NC=CN=C2C=C1/C=C/3\C(=O)NC(=O)S3
Procedure, shortened: as §1

ibrutinib = compound: C=CC(=O)N1CCC[C@@H](n2nc(-c3ccc(Oc4ccccc4)cc3)c3c(N)ncnc32)C1 [ibrutinib]
Procedure, shortened: as §1

Measured: log2 fold change

SDC3 (UniProt O75056)
inactive: erlotinib -0.11 | [1] 0.047 | [2] 0.096 | IRAK-1-4 Inhibitor I 0.062 | ralimetinib 0.107 | [3] 0.015 | [4] -0.133 | [5] 0.128 | [6] 0.066 | [7] 0.033

SEMA4G isoform 2 (UniProt Q9NTN9)
inactive: erlotinib 0.005 | [8] -0.137 | [1] -0.063 | [9] 0.032 | [10] -0.011 | [11] 0.034 | [12] -0.112 | [4] -0.013 | [5] -0.021 | [6] -0.137

SATB2 (UniProt Q9UPW6)
inactive: erlotinib -0.019 | [8] -0.044 | [1] 0.022 | [9] -0.01 | [2] -0.006 | [10] 0.031 | [11] -0.033 | [12] 0.009 | IRAK-1-4 Inhibitor I 0.027 | [13] -0.005 | ralimetinib 0.037 | [3] -0.004 | [4] -0.029 | [14] -0.007 | [5] -0.023 | [6] -0.027 | [7] 0.002 | [15] 0.047

2 consecutive records out of the list so far:
SDC3 (UniProt O75056)
inactive: erlotinib -0.11 | [1] 0.047 | [2] 0.096 | IRAK-1-4 Inhibitor I 0.062 | ralimetinib 0.107 | [3] 0.015 | [4] -0.133 | [5] 0.128 | [6] 0.066 | [7] 0.033

SEMA4G isoform 2 (UniProt Q9NTN9)
inactive: erlotinib 0.005 | [8] -0.137 | [1] -0.063 | [9] 0.032 | [10] -0.011 | [11] 0.034 | [12] -0.112 | [4] -0.013 | [5] -0.021 | [6] -0.137

Additional records follow:

SELENOI (UniProt Q9C0D9)
inactive: erlotinib -0.079 | [1] 0.039 | [16] -0.115 | [2] 0.017 | [11] -0.049 | [12] 0.209 | IRAK-1-4 Inhibitor I 0.009 | ibrutinib 0.037 | [13] -0.053 | ralimetinib -0.162 | [3] -0.065 | [4] -0.029 | [5] 0.065 | [6] 0.035 | [7] -0.062 | [15] 0.071

SCOC (UniProt Q9UIL1)
inactive: erlotinib -0.076 | [1] 0.074 | [2] 0.134 | IRAK-1-4 Inhibitor I 0.004 | ralimetinib 0.115 | [3] -0.06 | [4] 0.028 | [5] -0.318 | [6] 0.123 | [7] 0.07

SCAP (UniProt Q12770)
inactive: erlotinib 0.161 | [8] 0.14 | [1] -0.219 | [9] -0.071 | [16] 0.044 | [2] 0.023 | [10] -0.195 | [11] 0 | [12] 0.083 | IRAK-1-4 Inhibitor I -0.013 | ibrutinib -0.084 | [13] 0.013 | ralimetinib 0.03 | [3] 0.032 | [4] -0.029 | [14] 0.062 | [5] -0.074 | [6] -0.051 | [7] -0.001 | [15] 0.168

SAP130 isoform 3 (UniProt Q9H0E3)
inactive: erlotinib 0.038 | [8] -0.108 | [1] -0.062 | [9] 0.052 | [2] 0.046 | [10] -0.084 | [11] -0.113 | [12] 0.052 | IRAK-1-4 Inhibitor I 0.169 | [13] -0.032 | ralimetinib -0.096 | [3] -0.091 | [4] 0.005 | [5] -0.033 | [6] -0.019 | [7] 0.035 | [15] -0.016

SENP3 (UniProt Q9H4L4)
inactive: erlotinib 0.081 | [8] -0.019 | [1] -0.083 | [9] 0.026 | [10] 0.217 | [11] 0.455 | [12] -0.171 | [13] 0.231 | [4] 0.157 | [5] -0.094 | [6] 0.002 | [15] 0.183

SDHD (UniProt O14521)
inactive: erlotinib -0.054 | [8] -0.065 | [1] -0.029 | [9] -0.003 | [2] -0.091 | [10] 0.102 | [11] -0.184 | [12] -0.108 | IRAK-1-4 Inhibitor I -0.018 | [13] -0.016 | ralimetinib 0.023 | [3] -0.006 | [4] 0.042 | [14] -0.082 | [5] -0.005 | [6] 0.039 | [7] 0.012 | [15] 0.034

SEC11C (UniProt Q9BY50)
inactive: erlotinib 0.046 | [8] -0.029 | [1] -0.079 | [9] 0.021 | [16] 0.038 | [2] -0.167 | [10] -0.089 | IRAK-1-4 Inhibitor I 0.013 | ibrutinib 0.04 | [13] 0.011 | ralimetinib -0.008 | [3] 0.016 | [4] 0.007 | [14] 0.026 | [5] 0.017 | [6] 0.028 | [7] -0.113 | [15] -0.024

SAP30L (UniProt Q9HAJ7)
inactive: erlotinib 0.012 | [1] -0.021 | [2] 0.125 | IRAK-1-4 Inhibitor I -0.185 | ralimetinib -0.068 | [3] 0.014 | [4] -0.068 | [6] -0.028 | [7] 0.045

SCNM1 (UniProt Q9BWG6)
inactive: erlotinib 0.045 | [1] 0.044 | [2] -0.005 | [11] -0.054 | [12] -0.158 | IRAK-1-4 Inhibitor I -0.021 | [13] -0.026 | ralimetinib 0.013 | [3] 0.012 | [4] 0.062 | [14] 0.065 | [5] -0.189 | [6] 0.06 | [7] -0.069 | [15] -0.221

SEL1L3 (UniProt Q68CR1)
inactive: erlotinib 0.001 | [8] 0.108 | [1] -0.016 | [9] 0.015 | [16] 0.028 | [2] -0.01 | [10] -0.087 | [11] 0 | [12] 0.004 | IRAK-1-4 Inhibitor I -0.019 | ibrutinib 0.042 | ralimetinib 0.008 | [3] 0.012 | [4] -0.038 | [14] 0.141 | [5] -0.098 | [6] 0.092 | [7] -0.016

SAV1 (UniProt Q9H4B6)
inactive: [14] -0.087

SAC3D1 (UniProt A6NKF1)
inactive: [16] 0.158 | ibrutinib 0.021 | [14] -0.031 | [6] 0.088

SAFB2 (UniProt K7EQU4)
inactive: [16] 0.038 | ibrutinib 0.135 | [14] -0.028 | [5] -0.05 | [6] 0.101
